Some compounds share one range, which may span the group rather than tell each member.

The first data set relates to HCC1954 (HR-/Her2+) cells. In words: Cell surface HLA-bound peptidyl-citrullinome by mass spectrometry, HCC1954. The format is cell-based, human. The note with it: mild acid elution, LC-MS/MS, FDR=0.01; class by peptide length.
On to “DVASVQQQR*QEQSY (DVASVQQQRQEQSY; citrulline at R9; MOD_RES (9)..(9) Citrullinated Arginine) [SEQ ID NO: 86, PLIN3 peptide, R9(Cit.)]”, for which the “Cell surface MHC binding citrullinated peptide identified in HCC1954 (HR−/Her2+)” value is on record as “MHC-II (from 12 to 34 as MHC-IU binding peptides)”.

Take “YVTIIDAPGHR*DFIKNM (YVTIIDAPGHRDFIKNM; citrulline at R11; MOD_RES (11)..(11) Citrullinated Arginine) [SEQ ID NO: 37, EEF1A1 peptide, R11(Cit.)]”: the “Cell surface MHC binding citrullinated peptide identified in HCC1954 (HR−/Her2+)” value is reported as “MHC-II (from 12 to 34 as MHC-IU binding peptides)”.

For the substance “GGGNFRGGGRGGFGRGGGR*GGFNKGQ (GGGNFRGGGRGGFGRGGGRGGFNKGQ; citrulline at R19; MOD_RES (19)..(19) Citrullinated Arginine) [SEQ ID NO: 51, GAR1 peptide, R.19(Cit.)]”, the “Cell surface MHC binding citrullinated peptide identified in HCC1954 (HR−/Her2+)” value is recorded as “MHC-II (from 12 to 34 as MHC-IU binding peptides)”.

In the case of “LIR*KHTGSGILSMANAGPNTN (LIRKHTGSGILSMANAGPNTN; citrulline at R3; oxidized M13; MOD_RES (3)..(3) Citrullinated Arginine; MOD_RES (13)..(13) Oxidized Methionine) [SEQ ID NO: 92, PPIAL4E peptide, R3(Cit.); M13(Oxi.)]”, the “Cell surface MHC binding citrullinated peptide identified in HCC1954 (HR−/Her2+)” value was “MHC-II (from 12 to 34 as MHC-IU binding peptides)”.

Take “AVEKGVPLYR*HIADLAGNS (AVEKGVPLYRHIADLAGNS; citrulline at R10; MOD_RES (10)..(10) Citrullinated Arginine) [SEQ ID NO: 45, ENO1 peptide, R10(Cit.)]”: the “Cell surface MHC binding citrullinated peptide identified in HCC1954 (HR−/Her2+)” value is “MHC-II (from 12 to 34 as MHC-IU binding peptides)”.

Turning to “TVHAITATQKTVDGPSGKLWR* (citrulline at R21; MOD_RES (21)..(21) Citrullinated Arginine) [SEQ ID NO: 47, GAPDH peptide, R21(Cit.)]”, the “Cell surface MHC binding citrullinated peptide identified in HCC1954 (HR−/Her2+)” value is reported as “MHC-II (from 12 to 34 as MHC-IU binding peptides)”.

Turning to “VTRR*LGAGARAAPRR (VTRRLGAGARAAPRR; citrulline at R4; MOD_RES (4)..(4) Citrullinated Arginine) [SEQ ID NO: 26, COBLL1 peptide, R4(Cit.)]”, the “Cell surface MHC binding citrullinated peptide identified in HCC1954 (HR−/Her2+)” value is given as “MHC-II (from 12 to 34 as MHC-IU binding peptides)”.

As to “R*AEASQELLAQ (RAEASQELLAQ; citrulline at R1; MOD_RES (1)..(1) Citrullinated Arginine) [SEQ ID NO: 132, UBA7 peptide, R1(Cit.)]”, the “Cell surface MHC binding citrullinated peptide identified in HCC1954 (HR−/Her2+)” value is listed as “MHC-I (amino acid lengths putatively from 8 to 11 were considered as MHC-I binding peptides)”.

On to “NPDGPLGAAAGAAGGSWGR*PGPPPA (NPDGPLGAAAGAAGGSWGRPGPPPA; citrulline at R19; MOD_RES (19)..(19) Citrullinated Arginine) [SEQ ID NO: 25, CHST2 peptide, R19(Cit.)]”, for which the “Cell surface MHC binding citrullinated peptide identified in HCC1954 (HR−/Her2+)” value is “MHC-II (from 12 to 34 as MHC-IU binding peptides)”.

In the case of “LGGLAVAR*DDGL (LGGLAVARDDGL; citrulline at R8; MOD_RES (8)..(8) Citrullinated Arginine) [SEQ ID NO: 124, TAGLN2 peptide, R8(Cit.)]”, the “Cell surface MHC binding citrullinated peptide identified in HCC1954 (HR−/Her2+)” value is “MHC-II (from 12 to 34 as MHC-IU binding peptides)”.

For the substance “QIR*QFAAVLTR*RRLNTRWRRLAAEQRESLKSL (QIRQFAAVLTRRRLNTRWRRLAAEQRESLKSL; citrulline at R3 and R11; MOD_RES (3)..(3) Citrullinated Arginine; MOD_RES (11)..(11) Citrullinated Arginine) [SEQ ID NO: 61, IPO4 peptide, R3(Cit.); RII(Cit.)]”, the “Cell surface MHC binding citrullinated peptide identified in HCC1954 (HR−/Her2+)” value was “MHC-II (from 12 to 34 as MHC-IU binding peptides)”.

For a further data set, the system named is MDA-MB-468 (TNBC) cells. As to the kind of experiment: Cell surface HLA-bound peptidyl-citrullinome by mass spectrometry, MDA-MB-468. In kind it is cell-based, human. The note with it: mild acid elution, LC-MS/MS, FDR=0.01; class by peptide length.
For the substance “LAR*ELPAAVAPAGPASLAR*WTLG (LARELPAAVAPAGPASLARWTLG; citrulline at R3 and R19; MOD_RES (3)..(3) Citrullinated Arginine; MOD_RES (19)..(19) Citrullinated Arginine) [SEQ ID NO: 82, PGLS peptide, R3(Cit.); R19(Cit.)]”, the “Cell surface MHC binding citrullinated peptide identified in MDA-MB-468 (TNBC)” value is given as “MHC-II (from 12 to 34 as MHC-IU binding peptides)”.

Consider “EVQALDDTER*GSGGFGSTGKN (EVQALDDTERGSGGFGSTGKN; citrulline at R10; MOD_RES (10)..(10) Citrullinated Arginine) [SEQ ID NO: 31, DUT peptide, R.10(Cit.)]”, for which the “Cell surface MHC binding citrullinated peptide identified in MDA-MB-468 (TNBC)” value was “MHC-II (from 12 to 34 as MHC-IU binding peptides)”.

Consider “FAKPR*NQGGYGGSSSSSSYGSGR*RF (FAKPRNQGGYGGSSSSSSYGSGRRF; citrulline at R5 and R23; MOD_RES (5)..(5) Citrullinated Arginine; MOD_RES (23)..(23) Citrullinated Arginine) [SEQ ID NO: 58, HNRNPA1 peptide, R5(Cit.); R23(Cit.)]”, for which the “Cell surface MHC binding citrullinated peptide identified in MDA-MB-468 (TNBC)” value is reported as “MHC-II (from 12 to 34 as MHC-IU binding peptides)”.

As to “NNDNLLR*EGAAHAFAQY (NNDNLLREGAAHAFAQY; citrulline at R7; MOD_RES (7)..(7) Citrullinated Arginine) [SEQ ID NO: 21, CAPZA1 peptide, R7(Cit.)]”, the “Cell surface MHC binding citrullinated peptide identified in MDA-MB-468 (TNBC)” value is “MHC-II (from 12 to 34 as MHC-IU binding peptides)”.

The record behind these values is patent publication US20240201191A1, “CITRULLINATED PROTEINS AS BIOMARKERS AND THERAPY TARGETS FOR CANCER” (BOARD OF REGENTS, THE UNIVERSITY OF TEXAS SYSTEM, priority 2022, published 2024).
